Assay [1] has as its target 5-HT1D (Homo sapiens, UniProt P28221). Nature of the assay: competitive radioligand binding, recombinant cells. The format is cell-based.
Assay [2] addresses 5-HT7 (Homo sapiens, UniProt P34969). Nature of the assay: competitive radioligand binding, recombinant cells. The format is cell-based.

Amino acid sequences for entries named in this document (tags omitted). A change or cut given only in a name is not applied to a line headed by its entry.
UniProt P28221: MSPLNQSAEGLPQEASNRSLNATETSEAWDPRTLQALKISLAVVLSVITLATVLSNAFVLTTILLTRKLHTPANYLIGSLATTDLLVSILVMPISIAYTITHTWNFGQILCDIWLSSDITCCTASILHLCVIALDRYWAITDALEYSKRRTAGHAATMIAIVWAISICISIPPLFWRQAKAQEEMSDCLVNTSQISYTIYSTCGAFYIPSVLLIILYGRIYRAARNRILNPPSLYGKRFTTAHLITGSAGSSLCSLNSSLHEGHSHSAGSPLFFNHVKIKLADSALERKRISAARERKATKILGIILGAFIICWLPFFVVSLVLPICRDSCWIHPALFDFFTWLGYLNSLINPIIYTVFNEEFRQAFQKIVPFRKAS
UniProt P34969, whole entry: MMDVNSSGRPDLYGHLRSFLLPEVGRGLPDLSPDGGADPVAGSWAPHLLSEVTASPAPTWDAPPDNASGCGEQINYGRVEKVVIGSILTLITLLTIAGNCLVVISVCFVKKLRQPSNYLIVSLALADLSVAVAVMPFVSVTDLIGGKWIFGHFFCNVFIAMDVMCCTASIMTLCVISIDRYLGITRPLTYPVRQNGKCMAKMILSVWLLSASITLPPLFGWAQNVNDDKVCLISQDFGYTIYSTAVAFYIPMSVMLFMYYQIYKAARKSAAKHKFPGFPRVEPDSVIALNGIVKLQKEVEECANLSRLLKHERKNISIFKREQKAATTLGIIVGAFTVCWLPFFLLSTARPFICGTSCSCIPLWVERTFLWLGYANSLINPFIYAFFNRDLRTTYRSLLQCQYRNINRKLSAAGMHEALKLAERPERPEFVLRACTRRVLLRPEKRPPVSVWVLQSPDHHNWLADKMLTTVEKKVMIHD

Among the data in paper PMC9200067 (Clinical and Translational Science, 2022) are Ki values, retold here.

For orientation: Ki means a measure of affinity in units of concentration, obtained from inhibition or displacement.

With `O=c1n(CCCN2CCN(c3cccc(Cl)c3)CC2)nc2ccccn12` [trazodone], the Ki in assay [1] was 26 nM; in assay [2] it was 406 nM.
